Laboratory results as given in publication PMC4150796.

By UniProt entry, the sequences of proteins in these tests, tags left out. Where a name states a change or a piece, a line headed by the entry shows the natural chain unless it says otherwise.
UniProt Q13105: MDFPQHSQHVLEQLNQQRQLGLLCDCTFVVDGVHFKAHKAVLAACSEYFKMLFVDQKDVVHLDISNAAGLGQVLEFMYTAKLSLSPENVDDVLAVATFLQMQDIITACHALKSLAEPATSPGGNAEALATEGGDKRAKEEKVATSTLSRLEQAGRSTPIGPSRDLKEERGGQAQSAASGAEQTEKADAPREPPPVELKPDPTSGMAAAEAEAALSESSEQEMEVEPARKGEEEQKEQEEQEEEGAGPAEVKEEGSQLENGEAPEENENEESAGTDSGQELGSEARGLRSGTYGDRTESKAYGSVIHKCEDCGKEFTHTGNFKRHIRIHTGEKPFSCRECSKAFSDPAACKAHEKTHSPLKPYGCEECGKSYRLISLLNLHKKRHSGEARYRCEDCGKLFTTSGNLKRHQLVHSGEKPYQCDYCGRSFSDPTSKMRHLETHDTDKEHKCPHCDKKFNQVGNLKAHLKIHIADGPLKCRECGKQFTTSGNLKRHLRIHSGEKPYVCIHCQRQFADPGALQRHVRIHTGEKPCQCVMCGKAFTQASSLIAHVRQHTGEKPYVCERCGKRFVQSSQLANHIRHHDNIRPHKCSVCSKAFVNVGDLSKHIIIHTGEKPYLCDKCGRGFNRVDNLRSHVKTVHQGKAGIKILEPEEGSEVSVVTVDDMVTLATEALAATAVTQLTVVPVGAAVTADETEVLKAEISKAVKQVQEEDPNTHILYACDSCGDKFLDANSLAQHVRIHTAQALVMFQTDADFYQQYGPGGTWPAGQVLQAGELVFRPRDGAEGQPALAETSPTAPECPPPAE

Target: MIZ-1 POZ domain of the GST-pulldown experiments (human) (UniProt Q13105)
Experiment: pull-down; GST or GST fusion on glutathione-Sepharose 4B beads incubated with 35S-labeled in vitro translated protein; 10 mM Tris-HCl pH 8, 250 mM NaCl, 0.1% NP40, 2 mg/ml BSA, 4 h at 4°C; autoradiography; only the target purified

| Substance | binding |
| --- | --- |
| EBNA3A 1–172 (deletion mutant) (from UniProt P12977 1-172) (domain or fragment) | binds |
| 35S-labeled EBNA3A, in vitro translated (from UniProt P12977 1-944) | binds |

These are yes or no findings as the source states them, for the method shown. In cells and extracts the contact can be indirect. Binding can be weak; no strength is given.
